{
  "source": "patent US9072703B2",
  "about": "(Ipsen Pharma S.A.S., priority 2008, dated 2015)",
  "data": [
    {"assay": "general procedure: Fmoc solid-phase peptide synthesis; Pre-loaded Fmoc-Cys(Trt)-Wang or Fmoc-Gln(Trt)-Wang resin (0.59 mmole/g; Novabiochem); Rink amide MBHA resin for amides; HBTU/DIPEA", "settings": "whole synthesis", "units": {"isolated mass": "mg"}, "values": [
      {"substance": "[A6c^7, Cys(Psu)^42]hGIP(1-42)-OH", "isolated mass": 10.3},
      {"substance": "[A6c^7, Orn^35(N—C(O)—(CH2)12—CH3)]hGIP(1-42)-OH", "isolated mass": 6.2}
    ]},
    {"assay": "general procedure: Fmoc solid-phase peptide synthesis; Pre-loaded Fmoc-Cys(Trt)-Wang or Fmoc-Gln(Trt)-Wang resin (0.59 mmole/g; Novabiochem); Rink amide MBHA resin for amides; HBTU/DIPEA", "settings": "whole synthesis, HPLC, 250×4.6 mm C18 column (Phenomenex), 2-80% acetonitrile (0.1% TFA) over 30 minutes, scale of the general procedure 0.1 mmole", "units": {"final HPLC purity": "%", "crude HPLC purity": "% purity"}, "values": [
      {"substance": "(A5c^11)hGIP(1-30)-NH2", "final HPLC purity": 96.7},
      {"substance": "(A5c^11, 14)hGIP(1-30)-NH2", "final HPLC purity": 99.9},
      {"substance": "(A5c^11, 14, His^43)hGIP(1-43)-OH", "final HPLC purity": 99.9},
      {"substance": "(A5c^11, 40)hGIP(1-42)-OH", "final HPLC purity": 98.00},
      {"substance": "(A5c^11, 41)hGIP(1-42)-OH", "final HPLC purity": 99.00},
      {"substance": "(A5c^11, 41, Cys^32)hGIP(1-42)-NH2", "final HPLC purity": 95.5},
      {"substance": "(A5c^11, 41, Cys^33)hGIP(1-42)-NH2", "final HPLC purity": 96.2},
      {"substance": "(A5c^11, 41, Cys^43)hGIP(1-43)-NH2", "final HPLC purity": 96.9},
      {"substance": "(A5c^11, Ado^43)hGIP(1-43)-OH", "final HPLC purity": 99.99},
      {"substance": "(A5c^11, Ala^43)hGIP(1-43)-OH", "final HPLC purity": 97.40},
      {"substance": "(A5c^11, Asn^43)hGIP(1-43)-OH", "final HPLC purity": 99.90},
      {"substance": "(A5c^11, His^31)hGIP(1-31)-NH2", "final HPLC purity": 97.7},
      {"substance": "(A5c^11, His^43)hGIP(1-43)-OH", "final HPLC purity": 99.90},
      {"substance": "(A5c^11, Nle^14, His^43)hGIP(1-43)-OH", "final HPLC purity": 99.9},
      {"substance": "(A5c^11, Thr^43)hGIP(1-43)-OH", "final HPLC purity": 99.90},
      {"substance": "(A6c^7, 41)hGIP(1-42)-OH", "final HPLC purity": 99.90},
      {"substance": "(A6c^7, 41, Nle^14)hGIP(1-42)-OH", "final HPLC purity": 99.00},
      {"substance": "(A6c^11, 14, 40)hGIP(1-42)-OH", "final HPLC purity": 99.00},
      {"substance": "(A6c^11, 14, 41)hGIP(1-42)-OH", "final HPLC purity": 98.00},
      {"substance": "(Aib^13, A5c^40)hGIP(1-42)-OH", "final HPLC purity": 99.00},
      {"substance": "(Aib^13, Asp^43)hGIP(1-43)-NH2", "final HPLC purity": 99.90},
      {"substance": "(Aib^13, Nle^14, A5c^40)hGIP(1-42)-OH", "final HPLC purity": 99.00},
      {"substance": "(Aib^13, Nle^14, Phe^43)hGIP(1-43)-OH", "final HPLC purity": 99.90},
      {"substance": "(Aib^13, Trp^43)hGIP(1-43)-OH", "final HPLC purity": 99.99},
      {"substance": "[A5c^11, Lys^43(N—C(O)—(CH2)10—CH3)]hGIP(1-43)-OH", "final HPLC purity": 86.5},
      {"substance": "[A5c^11, Lys^43(N—C(O)—(CH2)14—CH3)]hGIP(1-43)-OH", "final HPLC purity": 95.5},
      {"substance": "[A5c^11, Orn^32(N—C(O)—(CH2)10—CH3), His^43]hGIP(1-43)-OH", "final HPLC purity": 92.2},
      {"substance": "[A5c^11, Orn^32(N—C(O)—(CH2)14—CH3), His^43]hGIP(1-43)-OH", "final HPLC purity": 90.6},
      {"substance": "[A5c^11, Orn^33(N—C(O)—(CH2)10—CH3), His^43]hGIP(1-43)-OH", "final HPLC purity": 82.9},
      {"substance": "[A5c^11, Orn^33(N—C(O)—(CH2)14—CH3), His^43]hGIP(1-43)-OH", "final HPLC purity": 93.0},
      {"substance": "[A6c^7, Cys(Psu)^42]hGIP(1-42)-OH", "final HPLC purity": 96.60},
      {"substance": "[A6c^7, Orn^31(N—C(O)—(CH2)12—CH3)]hGIP(1-42)-OH", "final HPLC purity": 96.10},
      {"substance": "[A6c^7, Orn^35(N—C(O)—(CH2)12—CH3)]hGIP(1-42)-OH", "crude HPLC purity": 50, "final HPLC purity": 97.40}
    ]},
    {"assay": "general procedure: Fmoc solid-phase peptide synthesis; Pre-loaded Fmoc-Cys(Trt)-Wang or Fmoc-Gln(Trt)-Wang resin (0.59 mmole/g; Novabiochem); Rink amide MBHA resin for amides; HBTU/DIPEA", "settings": "whole synthesis, scale 0.1 mmole", "values": [
      {"substance": "[A6c^7, Cys(Psu)^42]hGIP(1-42)-OH", "crude mass": "approximately 500 mg"},
      {"substance": "[A6c^7, Orn^35(N—C(O)—(CH2)12—CH3)]hGIP(1-42)-OH", "crude mass": "approximately 500 mg"}
    ]},
    {"assay": "general procedure: Fmoc solid-phase peptide synthesis; Pre-loaded Fmoc-Cys(Trt)-Wang or Fmoc-Gln(Trt)-Wang resin (0.59 mmole/g; Novabiochem); Rink amide MBHA resin for amides; HBTU/DIPEA", "settings": "whole synthesis, scale of the general procedure 0.1 mmole", "units": {"isolated yield": "%"}, "values": [
      {"substance": "[A6c^7, Cys(Psu)^42]hGIP(1-42)-OH", "isolated yield": 2},
      {"substance": "[A6c^7, Orn^35(N—C(O)—(CH2)12—CH3)]hGIP(1-42)-OH", "isolated yield": 1.2}
    ]},
    {"assay": "peptide synthesis", "settings": "whole synthesis", "units": {"final HPLC purity": "%"}, "values": [
      {"substance": "[A5c^11,41, Cys^32(succinimide-N-20K PEG)]hGIP(1-42)-NH2", "final HPLC purity": 99.9},
      {"substance": "[A5c^11,41, Cys^43(succinimide-N-20K PEG)]hGIP(1-43)-NH2", "final HPLC purity": 99.9},
      {"substance": "[A5c^11,41, Cys^43(succinimide-N-30K PEG)]hGIP(1-43)-NH2", "final HPLC purity": 99.9}
    ]}
  ]
}
